Experimental findings from PMC8880913 are described below.

By UniProt entry, the sequences of proteins in these tests, tags left out.
UniProt P10238: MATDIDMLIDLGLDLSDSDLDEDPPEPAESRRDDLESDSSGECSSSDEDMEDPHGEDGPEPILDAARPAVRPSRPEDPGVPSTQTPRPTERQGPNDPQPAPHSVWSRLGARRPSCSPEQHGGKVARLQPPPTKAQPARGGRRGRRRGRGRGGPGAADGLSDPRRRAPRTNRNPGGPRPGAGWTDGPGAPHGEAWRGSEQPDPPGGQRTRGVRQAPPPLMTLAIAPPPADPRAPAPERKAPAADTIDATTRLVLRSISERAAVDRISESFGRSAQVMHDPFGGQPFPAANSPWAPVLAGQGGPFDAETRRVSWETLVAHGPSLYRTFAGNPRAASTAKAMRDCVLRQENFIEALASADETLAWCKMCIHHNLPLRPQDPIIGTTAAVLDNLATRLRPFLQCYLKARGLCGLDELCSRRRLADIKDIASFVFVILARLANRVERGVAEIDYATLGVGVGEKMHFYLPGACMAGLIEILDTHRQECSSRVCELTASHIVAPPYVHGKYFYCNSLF

These are yes or no findings as the source states them, for the method shown. In cells and extracts the contact can be indirect. Some entries that bind do so weakly or less than the wild type. For part of these data: Where a sequence is shown, tags or fusion partners need not be part of it.

Assay [1] addresses T1, Flag-tagged MOV10 (Moloney leukemia virus 10 protein) (human) (UniProt Q9HCE1).
T1 sequence: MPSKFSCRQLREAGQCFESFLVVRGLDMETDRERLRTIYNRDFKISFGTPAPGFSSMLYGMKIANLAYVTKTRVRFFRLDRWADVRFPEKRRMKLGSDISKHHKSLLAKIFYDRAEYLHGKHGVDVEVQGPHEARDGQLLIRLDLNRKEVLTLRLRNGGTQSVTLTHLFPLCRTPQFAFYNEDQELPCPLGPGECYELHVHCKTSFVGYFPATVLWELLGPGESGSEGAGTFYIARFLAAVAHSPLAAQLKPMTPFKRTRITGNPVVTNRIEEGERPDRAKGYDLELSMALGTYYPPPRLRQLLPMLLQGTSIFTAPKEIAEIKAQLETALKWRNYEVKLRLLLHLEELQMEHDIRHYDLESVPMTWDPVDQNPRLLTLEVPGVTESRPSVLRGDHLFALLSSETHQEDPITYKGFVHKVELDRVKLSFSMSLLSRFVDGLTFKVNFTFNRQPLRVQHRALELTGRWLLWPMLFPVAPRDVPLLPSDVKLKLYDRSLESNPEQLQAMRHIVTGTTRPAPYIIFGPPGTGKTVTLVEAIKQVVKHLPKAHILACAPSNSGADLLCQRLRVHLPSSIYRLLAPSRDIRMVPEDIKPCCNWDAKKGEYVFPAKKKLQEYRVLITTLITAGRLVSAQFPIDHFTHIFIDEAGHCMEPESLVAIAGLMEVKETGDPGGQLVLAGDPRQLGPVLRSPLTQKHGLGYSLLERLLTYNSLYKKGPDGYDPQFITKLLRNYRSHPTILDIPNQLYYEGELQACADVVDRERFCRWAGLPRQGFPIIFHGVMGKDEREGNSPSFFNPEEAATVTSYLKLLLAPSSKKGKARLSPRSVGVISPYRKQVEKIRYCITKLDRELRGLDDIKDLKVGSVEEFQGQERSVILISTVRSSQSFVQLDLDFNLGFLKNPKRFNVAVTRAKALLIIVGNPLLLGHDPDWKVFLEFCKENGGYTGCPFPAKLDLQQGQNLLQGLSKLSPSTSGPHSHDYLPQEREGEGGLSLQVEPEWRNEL
Nature of the assay: co-IP; anti-Flag immunoprecipitation of Flag-tagged MOV10 or its truncated mutants from transfected Neuro-2a cells infected with HSV-1 (MOI = 5), harvested at 12 hpi; western blot. In general terms: In western blotting, separated proteins are transferred to a membrane and probed.

The target of assay [2] is T2, Flag-tagged IKKε (IκB kinase ε) (UniProt Q14164).
T2 sequence: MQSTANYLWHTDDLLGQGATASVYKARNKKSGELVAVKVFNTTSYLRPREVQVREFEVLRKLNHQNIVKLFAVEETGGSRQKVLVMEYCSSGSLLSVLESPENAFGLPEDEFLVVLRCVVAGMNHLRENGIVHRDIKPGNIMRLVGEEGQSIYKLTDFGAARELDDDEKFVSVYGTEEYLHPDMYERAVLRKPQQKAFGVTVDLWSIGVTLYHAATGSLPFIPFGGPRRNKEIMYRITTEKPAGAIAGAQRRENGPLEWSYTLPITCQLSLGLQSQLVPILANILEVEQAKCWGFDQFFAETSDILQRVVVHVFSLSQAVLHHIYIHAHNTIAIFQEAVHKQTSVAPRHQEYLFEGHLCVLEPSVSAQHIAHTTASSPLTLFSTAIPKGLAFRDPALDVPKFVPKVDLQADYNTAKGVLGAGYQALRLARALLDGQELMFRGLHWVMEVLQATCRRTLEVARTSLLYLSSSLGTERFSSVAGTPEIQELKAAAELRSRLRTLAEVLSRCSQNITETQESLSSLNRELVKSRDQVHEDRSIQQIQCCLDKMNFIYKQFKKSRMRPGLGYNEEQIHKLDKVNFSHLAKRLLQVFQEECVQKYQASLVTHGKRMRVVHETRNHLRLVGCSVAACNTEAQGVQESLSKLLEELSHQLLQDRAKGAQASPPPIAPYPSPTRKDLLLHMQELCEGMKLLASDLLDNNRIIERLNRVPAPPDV
Nature of the assay: co-IP; anti-Flag immunoprecipitation of Flag-IKKε from Neuro-2a cells co-transfected with untagged MOV10, infected with HSV-1 (MOI = 5), harvested at 12 hpi; western blot.

Assay [3] addresses Flag-tagged ICP27 (transfected) (HSV-1) (UniProt P10238). In words: co-IP; anti-Flag immunoprecipitation of ICP27 or its truncated mutants from transfected Neuro-2a cells harvested at 24 h post-transfection; western blot for endogenous MOV10.

With “HSV-1 ICP27 expressed during HSV-1 infection (from UniProt P10238 1-512)”, in assay [1], the binding entry is on record as “binds”.

B1: untagged MOV10 (protein, UniProt Q9HCE1 1-1003)
chain: MPSKFSCRQLREAGQCFESFLVVRGLDMETDRERLRTIYNRDFKISFGTPAPGFSSMLYGMKIANLAYVTKTRVRFFRLDRWADVRFPEKRRMKLGSDISKHHKSLLAKIFYDRAEYLHGKHGVDVEVQGPHEARDGQLLIRLDLNRKEVLTLRLRNGGTQSVTLTHLFPLCRTPQFAFYNEDQELPCPLGPGECYELHVHCKTSFVGYFPATVLWELLGPGESGSEGAGTFYIARFLAAVAHSPLAAQLKPMTPFKRTRITGNPVVTNRIEEGERPDRAKGYDLELSMALGTYYPPPRLRQLLPMLLQGTSIFTAPKEIAEIKAQLETALKWRNYEVKLRLLLHLEELQMEHDIRHYDLESVPMTWDPVDQNPRLLTLEVPGVTESRPSVLRGDHLFALLSSETHQEDPITYKGFVHKVELDRVKLSFSMSLLSRFVDGLTFKVNFTFNRQPLRVQHRALELTGRWLLWPMLFPVAPRDVPLLPSDVKLKLYDRSLESNPEQLQAMRHIVTGTTRPAPYIIFGPPGTGKTVTLVEAIKQVVKHLPKAHILACAPSNSGADLLCQRLRVHLPSSIYRLLAPSRDIRMVPEDIKPCCNWDAKKGEYVFPAKKKLQEYRVLITTLITAGRLVSAQFPIDHFTHIFIDEAGHCMEPESLVAIAGLMEVKETGDPGGQLVLAGDPRQLGPVLRSPLTQKHGLGYSLLERLLTYNSLYKKGPDGYDPQFITKLLRNYRSHPTILDIPNQLYYEGELQACADVVDRERFCRWAGLPRQGFPIIFHGVMGKDEREGNSPSFFNPEEAATVTSYLKLLLAPSSKKGKARLSPRSVGVISPYRKQVEKIRYCITKLDRELRGLDDIKDLKVGSVEEFQGQERSVILISTVRSSQSFVQLDLDFNLGFLKNPKRFNVAVTRAKALLIIVGNPLLLGHDPDWKVFLEFCKENGGYTGCPFPAKLDLQQGQNLLQGLSKLSPSTSGPHSHDYLPQEREGEGGLSLQVEPEWRNEL
As to B1, the binding entry in assay [2] is recorded as “binds”.

B2: endogenous MOV10 of Neuro-2a cells (protein, UniProt P23249 1-1004)
chain: MPSKFSCRKLRETGQRFESFLAERGLDLETDRERLRTIYNHDFKPSYGTPAPGFSSMLYGMKIANLAFVTKTRVRFFKLDRWADVQLPEKRRIKPGSNISKQHRSLLARIFHDRAEYLHGKHGVDVEVQGPHEARDGQLLIHLDLNRKEVLTLRLRNGGSKPVTLTHLFPLCWTPQFVFYHGEQDLPCPLGPGESYELHIYCKTSIVGYFPATVLWELLGPGESGAEGAETFYIARFLAAVAHSPLAAQLKPTTPFKRPPRLTRNSVLTNRIEEGERPDRAKGYELELSLALGTYYPPILLRQLLPTLLQGPSIFTAPKEVAEIKAQLETTLKSRNYEVKLRLLLHLEELQMEHDIRHYDLDSVPMTWDPVDQNPRLLTLEVPGVAESRPSVLRGDHLFALLSSETQQDDPVTYKGFVHKVELDRVKLSFSTSLLSRFVDGLTFKVNFTFNRQPLRVQHRALELTGRWVLWPMLFPVASRGVSLLPSDVKFKLYDRSLESNPEQLQAMKHIVRGTTRPAPYIIFGPPGTGKTVTLVEAIKQVVKHLPKAHILACAPSNSGADLLCQRLRVHLPSSIYRLLAPSRDIRMVPEDIKTCCNWDAKKGEYVYPAKKHLQQYRVLITTLITASRLVSAQFPIDHFTHIFIDEAGHCMEPESLVAIAGLMDVKETGNPGGQLVLAGDPRQLGPVLRSPLALKHGLGYSLLERLLAYNSLYKKGPNGYDPQFITKLLRNYRSHPTILDIPNQLYYDGELQACADVVDRERFCRWEGLPQQGFPIIFHGVMGKDEREGNSPSFFNPEEAATVTSYLKQLLAPSSKKGKARLSPRNVGVISPYRKQVEKIRYCITKLDRELRGLDDIKDLKVGSVEEFQGQERSVILISTVRSSQSFVQLDLDFNLGFLKNPKRFNVAVTRAKALLIVVGNPLLLGHDPDWKTFLEFCKENGGYTGCPFPAKLDLQQGQDLLQGLSKLSPSTSGPRRHQNLPQEREGEGGLPLQVEPEWRNEL
Consider B2, for which the binding result in assay [3] is on record as “binds”.
